Experimental data as given in PMC11323569 (mBio, 2024).
No constants are given. Whether binding was seen depends on the method and setting.

Biological target: PrgK_(SLT-CHAP) (residues 530-871) (Enterococcus faecalis (plasmid pCF10)) (UniProt Q5G3P4)
Assay: non-reducing SDS-PAGE; both purified

“PrgK_(SLT-CHAP) (residues 530-871) (from UniProt Q5G3P4 530-871) (domain or fragment)” was tested. Which binding did it give?
Its binding is “no binding (condition: with the reducing agent TCEP)”.
